Laboratory results taken from paper PMC1853097, “The high-resolution NMR structure of the R21A Spc-SH3:P41 complex: Understanding the determinants of binding affinity by comparison with Abl-SH3” (BMC Structural Biology, 2007).
Read-outs that look alike come from different tables or passages of the source.

Key:
[1] = system: WT α-spectrin SH3 domain (WT Spc-SH3); experiment: ITC titration of WT Spc-SH3 with p41; type: binding, chicken; conditions: 25°C; for ΔHb (enthalpy change of binding): global fit of three isotherms; for ΔHb (enthalpy change of binding) / p (number of protons exchanged with the buffer per mole of ligand bound): error = 95% confidence interval
Method: (§1) The binding between the p41 decapeptide and the R21A Spc-SH3 mutant domain was studied by a combination of isothermal titration calorimetry (ITC) and differential scanning calorimetry (DSC) experiments. ITC experiments were performed at 25°C at both pH 3.0 and 7.0, using several buffers at a concentration of 20 mM. Similar ITC experiments were made with the WT Spc-SH3 domain for comparison. […] The contribution of protonation/deprotonation processes to the binding enthalpy change, was estimated using three buffers differing in their ionization heats (Figure 1B).
(§2) ITC experiments were performed at 25°C in a high-precision MCS titration calorimeter (Microcal Inc., Northampton, MA). Prior to the experiments the protein was extensively dialyzed at 4°C against the appropriate buffer. The solutions of p41 peptide were prepared by dissolving the lyophilized material directly into the buffer and subsequently adjusting the pH of the solution. All buffers and solutions were filtered and degassed and equilibrated to the working temperature prior to each experiment. Typically, a ≈ 0.1 mM protein solution in the calorimeter's cell was titrated with the ligand solution (at a concentration about 4 – 5 mM). Due to the relatively low binding affinities, titrations were made by using a profile of injection volumes of the ligand solution in order to define better the titration curve. An independent identical titration with buffer in the cell was made with the same ligand solution to determine the corresponding heats of dilution. The dilution thermogram was subtracted from that obtained for the titration of the protein. The area under each peaks of the net thermogram was integrated to determine the heat produced by the binding between the ligand and the protein after each injection. To account for the contribution of protonation/deprotonation processes to the binding enthalpy, the experiments were repeated at each pH using three buffers differing in their ionization heats. The binding constant, Kb, and the enthalpy change of binding, ΔHb, were determined by global fitting of the three binding isotherms measured in different buffers, using a model of binding to a single set of identical sites, according to the equation:
(§3) ΔQ/Δ[L]T=VC⋅(ΔHb+p⋅ΔHi)/2[1−1+Kb[L]T−nKb[M]T/(1+Kb[L]T−nKb[M]T)^2−4nKb2[M]T[L]T] MathType@MTEF@5@5@+=feaafiart1ev1aaatCvAUfKttLearuWrP9MDH5MBPbIqV92AaeXatLxBI9gBaebbnrfifHhDYfgasaacH8akY=wiFfYdH8Gipec8Eeeu0xXdbba9frFj0=OqFfea0dXdd9vqai=hGuQ8kuc9pgc9s8qqaq=dirpe0xb9q8qiLsFr0=vr0=vr0dc8meaabaqaciaacaGaaeqabaqabeGadaaakeaadaWcaaqaaiabfs5aejabdgfarbqaaiabfs5aejabcUfaBjabdYeamjabc2faDnaaBaaaleaacqWGubavaeqaaaaakiabg2da9maalaaabaGaemOvay1aaSbaaSqaaiabdoeadbqabaGccqGHflY1cqGGOaakcqqHuoarcqWGibasdaWgaaWcbaGaemOyaigabeaakiabgUcaRiabdchaWjabgwSixlabfs5aejabdIeainaaBaaaleaacqWGPbqAaeqaaOGaeiykaKcabaGaeGOmaidaamaadmaabaGaeGymaeJaeyOeI0YaaSaaaeaacqaIXaqmcqGHRaWkcqWGlbWsdaWgaaWcbaGaemOyaigabeaakiabcUfaBjabdYeamjabc2faDnaaBaaaleaacqWGubavaeqaaOGaeyOeI0IaemOBa4Maem4saS0aaSbaaSqaaiabdkgaIbqabaGccqGGBbWwcqWGnbqtcqGGDbqxdaWgaaWcbaGaemivaqfabeaaaOqaamaakaaabaGaeiikaGIaeGymaeJaey4kaSIaem4saS0aaSbaaSqaaiabdkgaIbqabaGccqGGBbWwcqWGmbatcqGGDbqxdaWgaaWcbaGaemivaqfabeaakiabgkHiTiabd6gaUjabdUealnaaBaaaleaacqWGIbGyaeqaaOGaei4waSLaemyta0Kaeiyxa01aaSbaaSqaaiabdsfaubqabaGccqGGPaqkdaahaaWcbeqaaiabikdaYaaakiabgkHiTiabisda0iabd6gaUjabdUealnaaDaaaleaacqWGIbGyaeaacqaIYaGmaaGccqGGBbWwcqWGnbqtcqGGDbqxdaWgaaWcbaGaemivaqfabeaakiabcUfaBjabdYeamjabc2faDnaaBaaaleaacqWGubavaeqaaaqabaaaaaGccaGLBbGaayzxaaaaaa@898D@ […]

[2] = system: R21A mutant of the α-spectrin SH3 domain (R21A Spc-SH3); experiment: ITC titration of R21A Spc-SH3 with p41; type: binding, chicken; conditions: 25°C; for ΔHb (enthalpy change of binding): global fit of three isotherms; for ΔHb (enthalpy change of binding) / p (number of protons exchanged with the buffer per mole of ligand bound): error = 95% confidence interval
Method: as §1, §2, §3

[3] = system: SH3 domain of the Abl tyrosine kinase (Abl-SH3); conditions: ITC, 25°C, cited from earlier work
Text: The affinities are much lower than that of the Abl-SH3 domain for p41 under similar conditions, which is in the range of 2 × 10^5 – 4 × 10^5 M^-1 [16]. In all cases the binding is driven by a large and favourable enthalpy change, partially compensated by an unfavourable entropy change. A similar thermodynamic signature is usually observed for the binding of proline-rich peptides to other SH3 domains. The very small variation of the binding enthalpies with the ionization enthalpy of the buffers ... || We have performed a global analysis of the ΔCpapp MathType@MTEF@5@5@+=feaafiart1ev1aaatCvAUfKttLearuWrP9MDH5MBPbIqV92AaeXatLxBI9gBaebbnrfifHhDYfgasaacH8akY=wiFfYdH8Gipec8Eeeu0xXdbba9frFj0=OqFfea0dXdd9vqai=hGuQ8kuc9pgc9s8qqaq=dirpe0xb9q8qiLsFr0=vr0=vr0dc8meaabaqaciaacaGaaeqabaqabeGadaaakeaacqqHuoarcqWGdbWqdaqhaaWcbaGaemiCaahabaGaemyyaeMaemiCaaNaemiCaahaaaaa@34D4@ curves using a simple model in which the protein/ligand binding and protein unfolding equilibria are coupled (Figure 2). This analysis is, with minor modifications, similar to that used previously for the analysis of the interaction be ...

[4] = pH 3.0, three buffers differing in ionization heat
[5] = pH 7.0, three buffers differing in ionization heat

APSYSPPPPP [p41, synthetic decapeptide …, both acetylated and methylated in its termini]
TΔSb ([1]; pH 3.0): -22.4 kJ/mol
ΔGb ([1]; pH 3.0): -21.5 kJ/mol
ΔHb (enthalpy change of binding) ([1]; pH 3.0, 20 mM buffers): -43.9 ± 3.3 kJ/mol
p (number of protons exchanged with the buffer per mole of ligand bound) [1, 4]: -0.07 ± 0.11
TΔSb ([1]; pH 7.0): -24.2 kJ/mol
ΔGb ([1]; pH 7.0): -21.2 kJ/mol
ΔHb (enthalpy change of binding) ([1]; pH 7.0, 20 mM buffers): -45.4 ± 6.3 kJ/mol
p (number of protons exchanged with the buffer per mole of ligand bound) [1, 5]: 0.01 ± 0.12
net Gibbs energy gain of binding upon R21A mutation ([2]; at both pH values (3.0 and 7.0), R21A vs WT Spc-SH3): about -3 kJ mol^-1
TΔSb ([2]; pH 3.0): -27.0 kJ/mol
ΔGb ([2]; pH 3.0): -24.3 kJ/mol
ΔHb (enthalpy change of binding) ([2]; pH 3.0, 20 mM buffers): -51.3 ± 1.7 kJ/mol
p (number of protons exchanged with the buffer per mole of ligand bound) [2, 4]: -0.29 ± 0.08
TΔSb ([2]; pH 7.0): -34.4 kJ/mol
ΔGb ([2]; pH 7.0): -24.3 kJ/mol
ΔHb (enthalpy change of binding) ([2]; pH 7.0, 20 mM buffers): -58.7 ± 2.5 kJ/mol
p (number of protons exchanged with the buffer per mole of ligand bound) [2, 5]: 0.06 ± 0.05
TΔSb ([3]; pH 3.0): -62.9 kJ/mol
ΔGb ([3]; pH 3.0): -30.4 kJ/mol
ΔHb (enthalpy change of binding) ([3]; pH 3.0): -93.3 kJ/mol
TΔSb ([3]; pH 7.0): -60.2 kJ/mol
p (number of protons exchanged with the buffer per mole of ligand bound) ([3]; pH 7.0): 0.1
ΔGb ([3]; pH 7.0): -31.4 kJ/mol
ΔHb (enthalpy change of binding) ([3]; pH 7.0): -91.6 kJ/mol
